Source: patent publication US11773096B2, “Small-molecule PI5P4K alpha/beta inhibitors and methods of treatment using same” (YALE UNIVERSITY, priority 2018, dated 2023)
The match of structure and compound is tentative.

Amino acid sequences for entries named in this document (tags omitted).
UniProt P78356, whole entry: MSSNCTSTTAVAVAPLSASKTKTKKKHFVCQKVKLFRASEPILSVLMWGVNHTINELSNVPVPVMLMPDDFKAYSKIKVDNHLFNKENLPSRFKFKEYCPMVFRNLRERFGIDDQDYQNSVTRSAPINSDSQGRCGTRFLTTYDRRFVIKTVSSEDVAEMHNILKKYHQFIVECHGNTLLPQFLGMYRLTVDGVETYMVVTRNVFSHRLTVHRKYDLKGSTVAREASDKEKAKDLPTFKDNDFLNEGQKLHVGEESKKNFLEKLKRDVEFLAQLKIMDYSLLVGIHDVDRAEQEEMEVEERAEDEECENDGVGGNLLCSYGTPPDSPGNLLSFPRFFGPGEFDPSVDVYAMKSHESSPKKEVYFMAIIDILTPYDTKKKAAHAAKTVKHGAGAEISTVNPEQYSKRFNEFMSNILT
UniProt P48426, whole entry: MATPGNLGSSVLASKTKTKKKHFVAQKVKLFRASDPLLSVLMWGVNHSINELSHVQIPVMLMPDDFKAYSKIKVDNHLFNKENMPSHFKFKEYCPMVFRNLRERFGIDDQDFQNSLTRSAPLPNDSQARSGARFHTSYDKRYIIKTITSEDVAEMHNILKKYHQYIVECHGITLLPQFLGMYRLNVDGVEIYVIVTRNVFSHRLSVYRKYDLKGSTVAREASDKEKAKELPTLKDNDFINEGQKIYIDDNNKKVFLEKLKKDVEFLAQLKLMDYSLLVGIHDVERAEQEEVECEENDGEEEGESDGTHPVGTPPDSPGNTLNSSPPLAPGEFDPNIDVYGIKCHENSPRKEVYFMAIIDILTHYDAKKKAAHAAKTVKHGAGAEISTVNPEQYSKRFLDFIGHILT

How the values were obtained:
PI5P4Kβ = PI5P4Kβ (Homo sapiens, UniProt P78356); assay: PI5P4Kβ kinase assay, 32P-labelled PI(4,5)P2 product resolved by TLC; details: read-out: Ki(PI5P4Kβ)
PI5P4Kα = PI5P4Kα (Homo sapiens, UniProt P48426); assay: PI5P4Kα kinase assay, 32P-labelled PI(4,5)P2 product resolved by TLC; details: read-out: Ki(PI5P4Kα)

CN1C(=O)[C@@H](CN2CCCC2)N(C2CCCC2)c2nc(Nc3cc(Cl)c(O)c(Cl)c3)ncc21
Ki (PI5P4Kβ): 500 to 1000 nM | Ki (PI5P4Kα): 160 to 320 nM
